Common to all, as to assay: EMSA
On the technique in general: In EMSA bound probe runs differently from free probe, usually more slowly.

In series [1] the target is T1, RRP6-ΔQ73 Q73A (Lactiplantibacillus plantarum 163) (UniProt F9UPR2).
T1 sequence (looked up): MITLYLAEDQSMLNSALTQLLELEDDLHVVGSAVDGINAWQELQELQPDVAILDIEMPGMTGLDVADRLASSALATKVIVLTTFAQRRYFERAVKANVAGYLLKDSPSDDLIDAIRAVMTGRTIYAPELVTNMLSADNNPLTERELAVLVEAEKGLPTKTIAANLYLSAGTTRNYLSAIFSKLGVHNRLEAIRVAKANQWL
The conditions noted are these: weakest of the four mutants, some unbound probe remains; EMSA: 10 mM HEPES pH 7.9, 0.1 mM spermidine, 0.4 mM MgCl2, 50 mM NaCl, 0.1 mM ZnCl2, 0.4 mM DTT, 8% glycerol, 37 °C 30 min, 50 ng FAM probe, 4% gel; recombinant protein; residues 1-201; protein details: His-tag; label: FAM.

Series [2] has as its target T2, RRP6-ΔR144 R144A (Lactiplantibacillus plantarum 163) (UniProt F9UPR2).
T2 sequence (looked up): T1 sequence (looked up) with A73Q, R144A
Particulars: EMSA: 10 mM HEPES pH 7.9, 0.1 mM spermidine, 0.4 mM MgCl2, 50 mM NaCl, 0.1 mM ZnCl2, 0.4 mM DTT, 8% glycerol, 37 °C 30 min, 50 ng FAM probe, 4% gel; recombinant protein; residues 1-201; protein details: His-tag; label: FAM.

In series [3] the target is T3, RRP6-ΔY175 Y175A (Lactiplantibacillus plantarum 163) (UniProt F9UPR2).
T3 sequence (looked up): T1 sequence (looked up) with A73Q, Y175A
Particulars: EMSA: 10 mM HEPES pH 7.9, 0.1 mM spermidine, 0.4 mM MgCl2, 50 mM NaCl, 0.1 mM ZnCl2, 0.4 mM DTT, 8% glycerol, 37 °C 30 min, 50 ng FAM probe, 4% gel; recombinant protein; residues 1-201; protein details: His-tag; label: FAM.

The target in series [4] is T4, RRP6-ΔT171 T171A (Lactiplantibacillus plantarum 163) (UniProt F9UPR2).
T4 sequence (looked up): T1 sequence (looked up) with A73Q, T171A
The conditions noted are these: EMSA: 10 mM HEPES pH 7.9, 0.1 mM spermidine, 0.4 mM MgCl2, 50 mM NaCl, 0.1 mM ZnCl2, 0.4 mM DTT, 8% glycerol, 37 °C 30 min, 50 ng FAM probe, 4% gel; recombinant protein; residues 1-201; protein details: His-tag; label: FAM.

Series [5] addresses T5, RRP6 (Lactiplantibacillus plantarum 163) (UniProt F9UPR2).
T5 sequence: T1 sequence (looked up) with M60I, R68L, A70D, A73Q
The conditions noted are these: EMSA: 10 mM HEPES pH 7.9, 0.1 mM spermidine, 0.4 mM MgCl2, 50 mM NaCl, 0.1 mM ZnCl2, 0.4 mM DTT, 8% glycerol, 37 °C 30 min, 50 ng FAM probe, 4% gel; recombinant protein; label: FAM.

Substitutions are numbered along the chain they refer to. For some of these results: A weaker result is weaker than the reference pair of the same experiment. Where a protein sequence is shown, tags need not be part of it. For some of these results: Construct, isoform or probe ends are uncertain for at least one entry. For some of these results: At least one verdict rests on a figure or table, not on a statement of the authors.

Turning to “ACGTTAATAGATAGTTGGC (double strand) [Site I (CK1)]”, the binding result is on record as “binds more weakly” in series [1]; “binds more weakly” in series [2]; “binds more weakly” in series [3]; “binds more weakly” in series [4]; “binds” in series [5].
With “TAATTGGTGAGGGGAGTACAAG (double strand) [Site II (CK2)]”, the binding result in series [1] was “binds more weakly”; in series [2] it was “binds more weakly”; in series [3], “binds more weakly”; in series [4], “binds more weakly”; in series [5] it was “binds”.

The values are drawn from PMC12735751.
